Test results reported in article PMC10284602.
Results are given in words; binding and its absence hold for the method and conditions named. Binding seen in cells or lysates may run through a third protein. Some results given as binding are weak or reduced against the parent protein; the word gives no strength.

Amino acid sequences for entries named in this document (tags omitted).
UniProt Q15691: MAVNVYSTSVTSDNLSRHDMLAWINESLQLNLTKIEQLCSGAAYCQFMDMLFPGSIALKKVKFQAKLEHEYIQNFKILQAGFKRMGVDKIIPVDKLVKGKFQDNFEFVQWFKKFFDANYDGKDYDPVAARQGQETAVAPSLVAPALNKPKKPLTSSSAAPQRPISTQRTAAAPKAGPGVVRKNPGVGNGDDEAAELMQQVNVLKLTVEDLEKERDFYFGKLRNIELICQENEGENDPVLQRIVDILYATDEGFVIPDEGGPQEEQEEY

Key:
GST-EB1 (human) = GST-EB1 (human) (UniProt Q15691); experiment: pull-down; purified GST-EB1 or GST-EB3 on Glutathione Sepharose beads as bait, mixed with brain lysate of TEN2-HA knock-in mice at 4 °C for 1 hr; 20 mM Hepes, 150 mM NaCl, 0.5% TritonX-100, pH 7.4; Western blot for HA; GST as control; only the target purified
GST-EB3 (human) = GST-EB3 (human) (UniProt Q9UPY8); experiment: as above

Teneurin-2 with a 3×HA tag knocked in just before the stop codon (TEN2-HA) (from UniProt Q9WTS5 1-2764)
binding (GST-EB1 (human)): binds | binding (GST-EB3 (human)): binds
